Laboratory results from PubChem BioAssay AID2685 (National Center for Advancing Translational Sciences (NCATS), 2010).
Some of the results follow. The main result of the screen is listed elsewhere. These columns were measured beside it and carry no call. Compounds called inactive in the main read-out are mostly missing here. Words in brackets tell the shape of the fitted curve; partial curves, single points and poor fits give uncertain potencies.

Assay: qHTS Assay for Lipid Storage Modulators in Drosophila S3 Cells;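 as to cell number change: cells counted by Cell Tracker Red CMTPX staining in the red channel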
Conditions: BODIPY lipid droplet fluorescence, 18-24 h; for cell number change: measured here: cell count max response, cells fed with added oleic acid
Summary of the method: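 Laser-scanning cytometry quantifies lipid droplet accumulation (500–530 nm total intensity; droplet/cell object ratio) in oleic acid-fed (400 uM added) Drosophila S3 cells treated with a concentration series. 20 uM Triacsin C defined 100% inhibition.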

[1] = measured here: lipid fluorescence (Fed channel) AC50, cells fed with added oleic acid
[2] = measured here: cell number channel AC50, cells fed with added oleic acid

Structure (SMILES): COc1ccccc1NS(=O)(=O)c1ccc2oc(N)nc2c1
- cell number change: 6.67%
- AC50 [1]: 0.651 µM [rising, partial curve, poor fit]

Structure (SMILES): O=C(NNc1ccc([N+](=O)[O-])cc1)Nc1ccccc1
- cell number change: 2.59%

Structure (SMILES): O=c1oc2cc(Br)ccc2n1Cc1ccccc1
- cell number change: 3.41%

Structure (SMILES): O=S(=O)(N/N=C1/CC(c2ccccc2)Oc2ccccc21)c1ccc(Br)cc1 (stereo not given)
- cell number change: -15.2%

Structure (SMILES): CCOc1ccccc1Oc1coc2cc(OC(=O)c3ccco3)ccc2c1=O
- cell number change: -2.23%
- AC50 [1]: 0.13 µM [falling, full curve, poor fit]

Structure (SMILES): CC(=O)Nc1ccc(S(=O)(=O)N2CCN(C(=O)c3ncoc3-c3ccc(C)cc3)CC2)cc1
- cell number change: -3.95%
- AC50 [1]: 5.62 µM [rising, single point]

Structure (SMILES): Cc1nc(C)c(-c2ccc(SCc3cccc(F)c3)nn2)s1
- cell number change: -32.7%
- AC50 [2]: 9.2 µM [falling, single point]

Structure (SMILES): N#Cc1ccc(C(=O)OCC(=O)Nc2ccc(N3CCOCC3)cc2)cc1
- cell number change: -53.7%
- AC50 [1]: 0.82 µM [falling, full curve]

Structure (SMILES): Fc1ccc2c(c1)C(c1cccnc1)=NNC(c1cccs1)=N2
- cell number change: 22.2%
- AC50 [1]: 1.16 µM [rising, partial curve, poor fit]

Structure (SMILES): Cc1cccc(Nc2c([N+](=O)[O-])ccc3nonc23)c1C
- cell number change: 9.72%

Structure (SMILES): CCc1cc(=O)oc2c(C)c(OC(C)C(=O)NCCCn3ccnc3)ccc12 (stereo not given)
- cell number change: -0.895%
- AC50 [1]: 23.1 µM [falling, single point]

Structure (SMILES): O=C(COc1cc(F)ccc1[N+](=O)[O-])Nc1cccc(Br)c1
- cell number change: 60.9%
- AC50 [2]: 23.1 µM [rising, single point]

Structure (SMILES): COc1cc(OC)c(C(=O)NNC(=O)CN(C)S(=O)(=O)c2ccc(Cl)cc2)cc1OC
- AC50 [1]: 2.91 µM [rising, partial curve]

Structure (SMILES): O=C(CCCNS(=O)(=O)c1ccc(Cl)c(Cl)c1)NCCc1ccccn1
- cell number change: -48.4%
- AC50 [2]: 4.61 µM [falling, single point]
- AC50 [1]: 25.9 µM [falling, partial curve, poor fit]

Structure (SMILES): Cc1ccc(S(=O)(=O)N2CCN(S(=O)(=O)N3CCCCC3)CC2)cc1C
- cell number change: 25.7%

Structure (SMILES): O=C(COc1cccc2c1CCNC2=O)Nc1cccc(C(F)(F)F)c1
- AC50 [1]: 0.411 µM [rising, full curve]

Structure (SMILES): COc1cccc(S(=O)(=O)NCc2ccc(C(=O)N3CCN(C)CC3)cc2)c1
- cell number change: 19.1%
- AC50 [1]: 20.6 µM [falling, single point]

Structure (SMILES): COCc1[nH][nH]c(=O)c1C=Nc1ccc(C(F)(F)F)cc1
- cell number change: 6.95%
- AC50 [1]: 0.82 µM [rising, full curve]

Structure (SMILES): Cc1c(OCC(=O)NCCCN2CCOCC2)ccc2c(-c3ccccc3)cc(=O)oc12
- cell number change: 2.69%
- AC50 [1]: 0.231 µM [rising, full curve, poor fit]

Structure (SMILES): O=C(c1ccccc1F)N1CCN(Cc2ccccc2F)CC1
- cell number change: 32.8%
- AC50 [2]: 0.00517 µM [rising, full curve, poor fit]

Structure (SMILES): COC(=O)COc1cccc2c(=O)n(CC(=O)NCCc3ccccc3)ccc12
- cell number change: 13.2%
- AC50 [1]: 4.11 µM [rising, partial curve]

Structure (SMILES): O=c1[nH]c(N/N=C/c2ccccc2Br)nnc1-c1ccccc1
- cell number change: 71.9%
- AC50 [2]: 18.4 µM [rising, partial curve]
- AC50 [1]: 8.2 µM [falling, partial curve]

Structure (SMILES): O=c1c2ccccc2nnn1Cc1nnc(-c2ccccc2Br)o1
- cell number change: 9.7%
- AC50 [2]: 0.058 µM [rising, full curve, poor fit]
- AC50 [1]: 0.0651 µM [rising, full curve, poor fit]

Structure (SMILES): CCCCN(CCCC)C(=O)CSc1nnc(-c2cc(OC)c(OC)c(OC)c2)o1
- cell number change: -0.835%
- AC50 [1]: 6.51 µM [rising, single point]

Structure (SMILES): Cc1ccc(-c2noc(C3CCCN(C(=O)c4cccc(F)c4)C3)n2)cc1 (stereo not given)
- cell number change: -32%
- AC50 [2]: 29.1 µM [falling, single point]
- AC50 [1]: 29.1 µM [falling, single point]

Structure (SMILES): CCN1CCN(Cc2c(O)ccc3c(C)cc(=O)oc23)CC1
- cell number change: -20.8%
- AC50 [2]: 0.082 µM [falling, full curve, poor fit]

Structure (SMILES): CN1CCN(S(=O)(=O)c2cccc(C(=O)NCCOc3ccccc3)c2)CC1
- cell number change: 50%
- AC50 [2]: 16.4 µM [rising, single point]

Structure (SMILES): O=c1cc(Cc2ccccc2)[nH]c(=S)[nH]1
- cell number change: -25.3%
- AC50 [1]: 23.1 µM [falling, partial curve, poor fit]

Structure (SMILES): O=C(Nc1nnc(COc2ccc(Cl)cc2)s1)C1CCCO1 (stereo not given)
- AC50 [2]: 1.84 µM [rising, partial curve, poor fit]

Structure (SMILES): C=CCn1c(=NC(=O)c2ccco2)sc2cc(C(=O)OC)ccc21
- cell number change: 2.68%
- AC50 [1]: 0.411 µM [rising, full curve, poor fit]

Structure (SMILES): Cc1csc(SCC(=O)N(C)CC(=O)Nc2ccc(F)cc2)n1
- cell number change: 20.9%

Structure (SMILES): CCN(c1ccc(C(=O)CSc2nnc(C3CC3)n2C2CC2)cc1)S(C)(=O)=O
- cell number change: -12.7%

Structure (SMILES): O=S(=O)(c1ccc(OCC2CO2)cc1)c1ccc(OCC2CO2)cc1 (stereo not given)
- cell number change: -32.7%
- AC50 [2]: 8.2 µM [falling, partial curve]
- AC50 [1]: 10.3 µM [falling, partial curve]

Structure (SMILES): CC(=O)Nc1ccc(NC(=O)c2ccccc2-n2cnnn2)cc1
- cell number change: 0.5%

Structure (SMILES): O=C(Cc1ccccc1F)Nc1nc(-c2cccnc2)cs1
- cell number change: 7.08%

Structure (SMILES): CN1CCN(CCCNC(=O)c2ccc3c(c2)N(Cc2ccc(F)cc2)CCS3)CC1
- cell number change: 31.2%
- AC50 [2]: 0.082 µM [rising, full curve, poor fit]

Structure (SMILES): Nc1nc(Nc2ccccc2)nc2ccccc12
- cell number change: 3.62%
- AC50 [1]: 2.59 µM [rising, partial curve]

Structure (SMILES): CCOC(=O)c1c(NC(=O)c2cccc([N+](=O)[O-])c2C(=O)O)sc2c1CCCC2
- cell number change: 10.6%
- AC50 [1]: 5.8 µM [rising, single point]

Structure (SMILES): Cc1ccc([C@@H]2[C@@H]3C(=O)N(C)C(=O)[C@@H]3[C@]3(Cc4ccccc4)C(=O)N(Cc4ccccc4)CC(=O)N23)o1
- cell number change: 31.7%
- AC50 [2]: 0.164 µM [rising, full curve, poor fit]

Structure (SMILES): C#CCn1cc(/C=C2\NC(=O)NC2=O)c2ccccc21
- cell number change: 12.5%
- AC50 [2]: 0.103 µM [rising, full curve, poor fit]
- AC50 [1]: 0.58 µM [rising, single point]

Structure (SMILES): COC(=O)c1cccc(NC(=O)CSc2nc(C)cc(=O)[nH]2)c1
- cell number change: -18.4%
- AC50 [1]: 10.3 µM [rising, partial curve, poor fit]

Structure (SMILES): CCCC(C(=O)N(C)CC(=O)Nc1ccc(N2CCOCC2)cc1)c1ccccc1 (stereo not given)
- cell number change: 4.41%
- AC50 [1]: 0.651 µM [rising, full curve]

Structure (SMILES): O=C(NCc1ccco1)c1ccc(Cn2c(=O)c3sccc3n(Cc3cccc(F)c3)c2=O)cc1
- AC50 [1]: 0.00517 µM [rising, full curve, poor fit]

Structure (SMILES): CC(C)CC(c1nnnn1Cc1ccco1)N1CCN(C2CCCC2)CC1 (stereo not given)
- cell number change: -10.9%
- AC50 [1]: 0.146 µM [falling, full curve, poor fit]

Structure (SMILES): CC(C)CCN(C(=O)c1csnn1)C(C(=O)NC1CCCCC1)c1ccc(F)cc1 (stereo not given)
- cell number change: 1.28%

Structure (SMILES): CN(C(=O)CN1C(=O)NC2(CCc3ccccc32)C1=O)C1CCS(=O)(=O)C1 (stereo not given)
- cell number change: 18.5%
- AC50 [1]: 32.6 µM [rising, single point]

Structure (SMILES): CCC(=O)NNC(=O)CCC(=O)Nc1cccc(Cl)c1C
- cell number change: -31%
- AC50 [2]: 0.116 µM [falling, full curve]
- AC50 [1]: 23.1 µM [falling, single point]

Structure (SMILES): Cn1c(=O)[nH]c(=O)c2c1nc(N1CCCC1)n2CCO
- cell number change: 5.82%
- AC50 [1]: 23.1 µM [falling, single point]

Structure (SMILES): O=C(N/N=C1\CCCc2oc(C(=O)O)cc21)c1ccccc1
- cell number change: 2.99%
- AC50 [1]: 0.411 µM [rising, partial curve, poor fit]

Structure (SMILES): O=C(O)c1cc(-c2ccc3c(c2)OCO3)nc2ccccc12
- cell number change: 1.44%
- AC50 [2]: 0.411 µM [rising, full curve]

Structure (SMILES): O=c1c2ccccc2nc(SCc2nnc(-c3ccccc3)o2)n1-c1ccccc1
- cell number change: -2.38%

Structure (SMILES): O=C1C([N+](=O)[O-])=C(O)c2cccc3cccc1c23
- cell number change: -70.9%
- AC50 [2]: 20.6 µM [falling, partial curve]
- AC50 [1]: 14.6 µM [falling, partial curve]

Structure (SMILES): CCOC(=O)c1cc2c(ccn2C)n1CC(=O)N(Cc1ccccc1)c1ccccc1
- cell number change: -43.9%
- AC50 [2]: 7.31 µM [falling, partial curve]
- AC50 [1]: 5.8 µM [falling, partial curve]

Structure (SMILES): Cc1ccc(Nc2c(-c3ccc(N4CCOCC4)cc3)nc3cnccn23)cc1
- AC50 [2]: 0.92 µM [rising, full curve, poor fit]
- AC50 [1]: 0.82 µM [rising, partial curve, poor fit]

Structure (SMILES): COc1ccc2c(c1)C(=O)[C@@H](OC(=O)NCc1ccc3c(c1)OCO3)[C@H](c1ccc(OC)c(Br)c1)O2
- cell number change: 9.9%
- AC50 [1]: 0.651 µM [rising, full curve]

Structure (SMILES): N/C(=N\OC(=O)/C=C/c1ccccc1Cl)c1cccnc1
- cell number change: 15.5%
- AC50 [2]: 6.51 µM [rising, single point]

Structure (SMILES): Cc1cccnc1NC(=O)Nc1cccs1
- cell number change: 54.5%
- AC50 [2]: 20.6 µM [rising, partial curve, poor fit]
- AC50 [1]: 6.51 µM [rising, single point]

Structure (SMILES): O=C(CN1CCOCC1)Nc1ccccc1NC(=O)C1CCN(c2ncccn2)CC1
- cell number change: 30.3%
- AC50 [2]: 20.6 µM [rising, single point]
- AC50 [1]: 0.731 µM [falling, full curve, poor fit]

Structure (SMILES): CCCCc1nc2cc(C(=O)N3CCC(OC)CC3)ccc2o1
- cell number change: 8.96%
- AC50 [1]: 20.6 µM [falling, single point]

Structure (SMILES): Cc1ccc(C(=O)CSc2nnc(CNc3ccc(C)cc3C)o2)cc1
- AC50 [1]: 6.51 µM [rising, single point]
